Experimental data taken from the supplement of paper PMC12067093, “Discovery and optimisation of a covalent ligand for TRIM25 and its application to targeted protein ubiquitination” (Chemical Science, 2025).
The other results are listed elsewhere or left out.

Amino acid sequences for entries named in this document (tags omitted). A change or cut given only in a name is not applied to a line headed by its entry.
UniProt Q8WU67: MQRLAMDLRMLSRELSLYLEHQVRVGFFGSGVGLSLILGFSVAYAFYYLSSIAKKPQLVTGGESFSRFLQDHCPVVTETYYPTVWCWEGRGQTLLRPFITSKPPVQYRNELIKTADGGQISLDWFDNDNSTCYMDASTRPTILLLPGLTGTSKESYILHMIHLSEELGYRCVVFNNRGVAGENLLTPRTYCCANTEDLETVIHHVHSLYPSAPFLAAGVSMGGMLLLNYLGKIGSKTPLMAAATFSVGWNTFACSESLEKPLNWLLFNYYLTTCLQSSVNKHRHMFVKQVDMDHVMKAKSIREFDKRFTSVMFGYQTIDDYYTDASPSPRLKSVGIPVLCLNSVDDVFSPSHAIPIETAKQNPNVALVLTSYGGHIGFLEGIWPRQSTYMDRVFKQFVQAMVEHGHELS
UniProt P42765: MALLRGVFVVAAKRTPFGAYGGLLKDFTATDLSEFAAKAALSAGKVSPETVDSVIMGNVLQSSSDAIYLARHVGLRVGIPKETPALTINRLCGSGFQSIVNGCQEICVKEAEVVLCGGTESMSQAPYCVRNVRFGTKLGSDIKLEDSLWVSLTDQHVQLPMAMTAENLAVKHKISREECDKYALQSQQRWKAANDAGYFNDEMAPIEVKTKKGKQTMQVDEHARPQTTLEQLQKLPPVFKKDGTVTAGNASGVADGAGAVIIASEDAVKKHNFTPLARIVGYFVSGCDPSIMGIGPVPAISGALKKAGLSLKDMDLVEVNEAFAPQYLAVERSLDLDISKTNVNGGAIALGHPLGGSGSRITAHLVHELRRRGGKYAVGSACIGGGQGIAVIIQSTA
UniProt Q96AP0: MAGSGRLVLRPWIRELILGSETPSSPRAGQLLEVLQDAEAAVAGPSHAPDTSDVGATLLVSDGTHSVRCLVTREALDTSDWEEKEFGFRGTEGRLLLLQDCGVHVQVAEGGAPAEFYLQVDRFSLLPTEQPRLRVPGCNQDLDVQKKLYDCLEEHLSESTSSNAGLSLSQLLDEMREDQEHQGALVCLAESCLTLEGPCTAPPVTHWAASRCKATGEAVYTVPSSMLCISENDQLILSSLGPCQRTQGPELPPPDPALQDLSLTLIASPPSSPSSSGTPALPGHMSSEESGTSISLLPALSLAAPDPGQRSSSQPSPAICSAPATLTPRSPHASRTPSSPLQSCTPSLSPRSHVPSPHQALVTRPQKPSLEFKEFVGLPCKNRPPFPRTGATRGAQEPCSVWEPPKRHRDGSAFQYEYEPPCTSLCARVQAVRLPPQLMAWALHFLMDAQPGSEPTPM
UniProt P49748: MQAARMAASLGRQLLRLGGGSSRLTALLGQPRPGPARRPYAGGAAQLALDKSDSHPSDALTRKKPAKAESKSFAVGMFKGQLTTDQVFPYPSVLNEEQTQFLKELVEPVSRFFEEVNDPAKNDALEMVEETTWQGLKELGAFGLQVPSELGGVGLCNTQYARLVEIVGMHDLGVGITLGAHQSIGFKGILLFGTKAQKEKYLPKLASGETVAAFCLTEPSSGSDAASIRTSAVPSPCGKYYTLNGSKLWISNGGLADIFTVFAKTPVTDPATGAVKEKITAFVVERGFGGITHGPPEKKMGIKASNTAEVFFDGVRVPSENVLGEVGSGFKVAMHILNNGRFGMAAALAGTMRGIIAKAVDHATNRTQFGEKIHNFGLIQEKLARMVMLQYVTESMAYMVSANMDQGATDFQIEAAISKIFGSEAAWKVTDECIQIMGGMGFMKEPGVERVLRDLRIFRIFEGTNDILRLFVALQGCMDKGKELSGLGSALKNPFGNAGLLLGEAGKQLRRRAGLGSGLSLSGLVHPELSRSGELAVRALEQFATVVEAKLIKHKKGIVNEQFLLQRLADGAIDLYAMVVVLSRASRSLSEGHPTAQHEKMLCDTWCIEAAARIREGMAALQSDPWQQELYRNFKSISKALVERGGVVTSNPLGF
UniProt P24752: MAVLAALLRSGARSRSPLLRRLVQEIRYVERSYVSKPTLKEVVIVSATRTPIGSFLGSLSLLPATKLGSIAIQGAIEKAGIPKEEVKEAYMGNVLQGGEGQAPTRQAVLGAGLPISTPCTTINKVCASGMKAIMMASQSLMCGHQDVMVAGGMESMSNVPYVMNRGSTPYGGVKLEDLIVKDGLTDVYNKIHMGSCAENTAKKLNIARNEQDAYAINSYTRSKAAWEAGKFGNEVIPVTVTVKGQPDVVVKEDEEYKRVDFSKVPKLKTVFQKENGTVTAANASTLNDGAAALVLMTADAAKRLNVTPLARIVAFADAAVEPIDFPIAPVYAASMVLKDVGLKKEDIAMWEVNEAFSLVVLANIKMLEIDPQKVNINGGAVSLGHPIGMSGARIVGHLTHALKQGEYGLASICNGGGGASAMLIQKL
UniProt P21399: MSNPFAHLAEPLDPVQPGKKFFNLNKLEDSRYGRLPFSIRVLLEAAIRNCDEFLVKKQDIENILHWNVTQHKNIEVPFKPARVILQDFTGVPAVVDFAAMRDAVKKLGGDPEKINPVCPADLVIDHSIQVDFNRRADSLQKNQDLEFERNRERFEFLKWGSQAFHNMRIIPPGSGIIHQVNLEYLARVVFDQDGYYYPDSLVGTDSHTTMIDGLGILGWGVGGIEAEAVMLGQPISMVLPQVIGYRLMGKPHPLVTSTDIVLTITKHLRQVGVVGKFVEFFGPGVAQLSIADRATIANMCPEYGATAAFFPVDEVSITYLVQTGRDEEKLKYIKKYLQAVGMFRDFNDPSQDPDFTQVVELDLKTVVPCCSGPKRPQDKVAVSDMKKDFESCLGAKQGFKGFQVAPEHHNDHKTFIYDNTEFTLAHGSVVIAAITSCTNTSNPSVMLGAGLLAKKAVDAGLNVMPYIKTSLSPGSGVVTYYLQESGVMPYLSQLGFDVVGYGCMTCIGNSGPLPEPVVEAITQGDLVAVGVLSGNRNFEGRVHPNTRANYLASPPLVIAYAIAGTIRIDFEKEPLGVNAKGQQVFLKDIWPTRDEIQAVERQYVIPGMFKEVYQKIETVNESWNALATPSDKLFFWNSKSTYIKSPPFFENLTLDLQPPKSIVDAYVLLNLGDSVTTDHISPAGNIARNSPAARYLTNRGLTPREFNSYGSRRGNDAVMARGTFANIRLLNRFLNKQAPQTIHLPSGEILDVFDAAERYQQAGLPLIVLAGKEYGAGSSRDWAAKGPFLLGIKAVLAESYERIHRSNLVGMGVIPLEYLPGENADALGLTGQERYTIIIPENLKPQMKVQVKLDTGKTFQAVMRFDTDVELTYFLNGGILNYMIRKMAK
UniProt P42684, whole entry, looked up: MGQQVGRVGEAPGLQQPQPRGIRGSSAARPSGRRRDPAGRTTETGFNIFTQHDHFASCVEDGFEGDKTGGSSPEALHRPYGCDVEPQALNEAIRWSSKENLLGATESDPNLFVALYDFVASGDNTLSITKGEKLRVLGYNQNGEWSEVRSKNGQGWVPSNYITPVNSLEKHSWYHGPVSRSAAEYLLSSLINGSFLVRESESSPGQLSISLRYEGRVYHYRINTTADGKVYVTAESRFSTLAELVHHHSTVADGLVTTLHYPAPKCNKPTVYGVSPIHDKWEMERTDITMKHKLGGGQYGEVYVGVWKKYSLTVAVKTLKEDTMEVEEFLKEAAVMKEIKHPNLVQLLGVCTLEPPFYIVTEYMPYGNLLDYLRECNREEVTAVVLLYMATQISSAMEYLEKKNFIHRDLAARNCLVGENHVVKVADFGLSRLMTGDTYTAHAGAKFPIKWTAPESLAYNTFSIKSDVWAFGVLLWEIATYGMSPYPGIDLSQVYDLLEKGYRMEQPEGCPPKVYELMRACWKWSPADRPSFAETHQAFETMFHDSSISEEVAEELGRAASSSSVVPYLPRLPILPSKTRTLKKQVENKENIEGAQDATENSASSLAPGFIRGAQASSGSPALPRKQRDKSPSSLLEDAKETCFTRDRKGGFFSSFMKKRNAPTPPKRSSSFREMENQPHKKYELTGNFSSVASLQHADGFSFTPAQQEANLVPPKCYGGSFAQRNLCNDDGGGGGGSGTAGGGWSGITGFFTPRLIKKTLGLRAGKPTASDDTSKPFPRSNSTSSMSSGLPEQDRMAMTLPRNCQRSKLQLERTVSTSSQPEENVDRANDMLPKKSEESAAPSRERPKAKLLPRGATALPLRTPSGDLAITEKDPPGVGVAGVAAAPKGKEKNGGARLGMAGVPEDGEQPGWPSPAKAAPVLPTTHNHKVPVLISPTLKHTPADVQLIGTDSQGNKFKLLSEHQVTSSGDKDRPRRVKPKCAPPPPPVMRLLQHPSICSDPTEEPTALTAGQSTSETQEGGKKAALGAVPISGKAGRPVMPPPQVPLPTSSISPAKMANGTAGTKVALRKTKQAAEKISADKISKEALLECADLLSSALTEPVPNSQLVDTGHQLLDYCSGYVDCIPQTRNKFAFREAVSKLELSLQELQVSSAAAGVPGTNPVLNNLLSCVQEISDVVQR
UniProt Q6UXT9: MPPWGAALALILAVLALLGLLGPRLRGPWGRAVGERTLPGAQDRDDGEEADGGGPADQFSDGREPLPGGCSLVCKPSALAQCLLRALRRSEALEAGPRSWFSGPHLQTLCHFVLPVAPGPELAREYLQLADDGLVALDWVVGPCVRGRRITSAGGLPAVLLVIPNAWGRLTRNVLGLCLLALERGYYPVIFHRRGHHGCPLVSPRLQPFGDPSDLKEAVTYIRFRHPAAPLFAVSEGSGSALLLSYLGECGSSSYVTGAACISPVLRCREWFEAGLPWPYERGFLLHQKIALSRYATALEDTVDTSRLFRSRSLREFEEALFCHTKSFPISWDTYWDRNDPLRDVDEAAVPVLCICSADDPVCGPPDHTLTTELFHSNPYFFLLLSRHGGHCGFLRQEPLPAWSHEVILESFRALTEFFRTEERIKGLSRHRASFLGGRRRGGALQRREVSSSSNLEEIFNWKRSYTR
UniProt Q2M2I8: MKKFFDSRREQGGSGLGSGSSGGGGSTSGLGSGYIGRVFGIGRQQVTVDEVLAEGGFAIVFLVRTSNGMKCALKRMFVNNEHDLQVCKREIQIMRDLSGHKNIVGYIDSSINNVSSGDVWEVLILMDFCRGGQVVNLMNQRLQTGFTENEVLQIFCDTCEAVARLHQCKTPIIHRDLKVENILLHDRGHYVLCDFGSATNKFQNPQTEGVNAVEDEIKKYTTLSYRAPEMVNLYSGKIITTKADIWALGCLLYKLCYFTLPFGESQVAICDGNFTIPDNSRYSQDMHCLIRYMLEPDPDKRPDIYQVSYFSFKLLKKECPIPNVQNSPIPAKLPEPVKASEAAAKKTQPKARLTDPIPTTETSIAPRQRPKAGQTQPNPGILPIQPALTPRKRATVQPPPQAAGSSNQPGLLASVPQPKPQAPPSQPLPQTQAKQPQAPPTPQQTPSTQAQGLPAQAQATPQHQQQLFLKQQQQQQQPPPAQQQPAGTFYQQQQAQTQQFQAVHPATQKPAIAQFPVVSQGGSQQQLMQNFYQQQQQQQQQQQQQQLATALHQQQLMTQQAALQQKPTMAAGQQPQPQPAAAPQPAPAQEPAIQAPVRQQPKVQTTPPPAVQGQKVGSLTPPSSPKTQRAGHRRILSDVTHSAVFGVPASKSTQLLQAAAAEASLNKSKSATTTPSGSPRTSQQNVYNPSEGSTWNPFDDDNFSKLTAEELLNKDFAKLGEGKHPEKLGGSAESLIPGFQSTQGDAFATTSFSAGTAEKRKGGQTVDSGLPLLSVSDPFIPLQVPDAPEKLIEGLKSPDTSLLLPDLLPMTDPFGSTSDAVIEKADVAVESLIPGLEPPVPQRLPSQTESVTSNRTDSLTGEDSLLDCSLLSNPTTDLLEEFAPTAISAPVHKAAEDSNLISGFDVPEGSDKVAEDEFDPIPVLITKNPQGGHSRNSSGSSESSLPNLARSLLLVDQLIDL
UniProt Q5T8D3: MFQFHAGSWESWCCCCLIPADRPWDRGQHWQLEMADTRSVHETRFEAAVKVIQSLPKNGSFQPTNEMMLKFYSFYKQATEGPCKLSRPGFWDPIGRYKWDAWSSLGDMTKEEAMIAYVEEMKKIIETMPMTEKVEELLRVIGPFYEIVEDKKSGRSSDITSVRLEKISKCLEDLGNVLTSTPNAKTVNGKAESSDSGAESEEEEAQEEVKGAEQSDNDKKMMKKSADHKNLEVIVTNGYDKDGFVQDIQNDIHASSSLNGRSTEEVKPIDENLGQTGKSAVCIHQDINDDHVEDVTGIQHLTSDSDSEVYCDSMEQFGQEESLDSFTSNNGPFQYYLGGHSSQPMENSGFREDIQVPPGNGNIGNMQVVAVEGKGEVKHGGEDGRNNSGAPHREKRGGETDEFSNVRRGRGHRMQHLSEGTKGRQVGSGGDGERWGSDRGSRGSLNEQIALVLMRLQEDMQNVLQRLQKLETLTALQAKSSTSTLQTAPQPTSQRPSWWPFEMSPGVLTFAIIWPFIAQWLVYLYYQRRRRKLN

Compound: Cc1cc(ccc1-c1ccccc1)C(=O)N1CCCN(CC1)C(=O)CCl [compound 10]
Assay: probe-labelled cysteine peptide fold change vs DMSO (competition) (log2 fold change); higher = less target engagement (more negative = stronger competition)
Conditions: 10 µM; THP-1; incubation time: 4 h
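Also: competitive profiling in live THP-1 cells: cysteine peptides tagged with an iodoacetamide desthiobiotin (IA-DTB) probe, intensity after compound treatment relative to DMSO-treated cells.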

| Target | probe-labelled cysteine peptide fold change |
| --- | --- |
| ABHD3_Q8WU67_86_FLQDHCPVVTETYYPTVWCWEGR (UniProt Q8WU67) | -0.00323 |
| ACBD3_Q9H3P7_129_QVLMGPYNPDTCPEVGFFDVLGNDR (UniProt Q9H3P7) | 0.23 |
| ACAA2_P42765_116+128_EAEVVLCGGTESMSQAPYCVR (UniProt P42765) | -0.0657 |
| AARS2_Q5JTZ9_749_VVSVGVPVAHALDPASQAALQTSVELCCGTHLLR (UniProt Q5JTZ9) | -0.198 |
| ABCA1_O95477_215_SEEMIQLGDQEVSELCGLPR (UniProt O95477) | -0.534 |
| ACD_Q96AP0_466_EFVGLPCK (UniProt Q96AP0) | -0.126 |
| ACADVL_P49748_477_LFVALQGCMDK (UniProt P49748) | -0.223 |
| ACAT1_P24752_119_QAVLGAGLPISTPCTTINK (UniProt P24752) | -0.241 |
| ACOT7_O00154_100_CVAALAR (UniProt O00154) | -0.125 |
| ACO1_P21399_392_DFESCLGAK (UniProt P21399) | -0.168 |
| ABL1_P00519_100_VLGYNHNGEWCEAQTK (UniProt P00519) | 0.091 |
| ABL2_P42684_415_NCLVGENHVVK (UniProt P42684) | 0.00196 |
| ABI1_Q8IZP0_488_NDDGWYEGVCNR (UniProt Q8IZP0) | 0.0516 |
| ABHD15_Q6UXT9_323_SLREFEEALFCHTK (UniProt Q6UXT9) | 0.105 |
| AAK1_Q2M2I8_193_GHYVLCDFGSATNK (UniProt Q2M2I8) | 0.226 |
| ACOT7_O00154_92_HCNSQNGER (UniProt O00154) | -0.182 |
| ACACB_O00763_1429_SLREEPIHILNVSIQCADHLEDEALVPILR (UniProt O00763) | -0.273 |
| ACBD5_Q5T8D3_83_QATEGPCK (UniProt Q5T8D3) | 0.219 |
| ACADVL_P49748_156_ELGAFGLQVPSELGGVGLCNTQYAR (UniProt P49748) | -0.263 |
| AARS_P49588_947_NVGCLQEALQLATSFAQLR (UniProt P49588) | 0.375 |
| ACO2_Q99798_451_DLGGIVLANACGPCIGQWDR (UniProt Q99798) | 0.131 |

Same assay, conditions: 50 µM; THP-1; incubation time: 4 h

| Target | probe-labelled cysteine peptide fold change |
| --- | --- |
| ACADVL_P49748_603_MLCDTWCIEAAAR (UniProt P49748) | -0.188 |
| ABCA2_Q9BZC7_1542_LPSGVGATCVLK (UniProt Q9BZC7) | -0.255 |
| ABCF3_Q9NUQ8_680_ELWVCEGGGVTR (UniProt Q9NUQ8) | 0.141 |
| ACOT4_Q8N9L9_121_LLCQAQHER (UniProt Q8N9L9) | -0.343 |
| ACADVL_P49748_237_TSAVPSPCGK (UniProt P49748) | -0.259 |
| ABCB1_P08183_1074_KGQTLALVGSSGCGK (UniProt P08183) | -0.0827 |
| ACLY_P53396_20_FICTTSAIQNR (UniProt P53396) | -0.193 |
| ACBD3_Q9H3P7_487_RDCHEEVYAGSHQYPGR (UniProt Q9H3P7) | 0.129 |
| ABCC1_P33527_1479_TQFEDCTVLTIAHR (UniProt P33527) | 0.0229 |
| ACACA_Q13085_1009_CVFALR (UniProt Q13085) | 0.302 |
| ABHD17B_Q5VST6_250_CQRPVEPLWVEGAGHNDVELYGQYLER (UniProt Q5VST6) | 0.147 |
| ACBD3_Q9H3P7_168_CCHLFSTYVASHK (UniProt Q9H3P7) | 0.0177 |
| ACAA1_P09110_177_ARDCLIPMGITSENVAER (UniProt P09110) | 0.0101 |
| ABCD3_P28288_477_SGANVLICGPNGCGK (UniProt P28288) | 0.0817 |
| ABR_Q12979_158_EFYDNLCPK (UniProt Q12979) | -0.113 |
| ABI1_Q8IZP0_488_KNDDGWYEGVCNR (UniProt Q8IZP0) | 0.013 |
| ACO2_Q99798_448+451_DLGGIVLANACGPCIGQWDRK (UniProt Q99798) | -0.611 |
| ABHD3_Q8WU67_86_FLQDHCPVVTETYYPTVWCWEGR (UniProt Q8WU67) | 0.159 |
| ACBD3_Q9H3P7_129_QVLMGPYNPDTCPEVGFFDVLGNDR (UniProt Q9H3P7) | 0.288 |

| Target | probe-labelled cysteine peptide fold change |
| --- | --- |
| ACAA2_P42765_116+128_EAEVVLCGGTESMSQAPYCVR (UniProt P42765) | -0.464 |
| AARS2_Q5JTZ9_749_VVSVGVPVAHALDPASQAALQTSVELCCGTHLLR (UniProt Q5JTZ9) | -0.853 |
| ABCA1_O95477_215_SEEMIQLGDQEVSELCGLPR (UniProt O95477) | 0.336 |
| ACD_Q96AP0_466_EFVGLPCK (UniProt Q96AP0) | -0.748 |
| ACADVL_P49748_477_LFVALQGCMDK (UniProt P49748) | 0.311 |
| ACAT1_P24752_119_QAVLGAGLPISTPCTTINK (UniProt P24752) | -0.635 |
| ACOT7_O00154_100_CVAALAR (UniProt O00154) | -0.0977 |
| ACO1_P21399_392_DFESCLGAK (UniProt P21399) | -0.169 |
| ABL1_P00519_100_VLGYNHNGEWCEAQTK (UniProt P00519) | 0.0961 |
| ABL2_P42684_415_NCLVGENHVVK (UniProt P42684) | 0.0992 |
| ABI1_Q8IZP0_488_NDDGWYEGVCNR (UniProt Q8IZP0) | 0.311 |
| ABHD15_Q6UXT9_323_SLREFEEALFCHTK (UniProt Q6UXT9) | 0.0371 |
| AAK1_Q2M2I8_193_GHYVLCDFGSATNK (UniProt Q2M2I8) | -0.00198 |
| ACOT7_O00154_92_HCNSQNGER (UniProt O00154) | -0.112 |
| ACACB_O00763_1429_SLREEPIHILNVSIQCADHLEDEALVPILR (UniProt O00763) | -0.503 |
| ACBD5_Q5T8D3_83_QATEGPCK (UniProt Q5T8D3) | 0.056 |
| ACADVL_P49748_156_ELGAFGLQVPSELGGVGLCNTQYAR (UniProt P49748) | 0.318 |
| AARS_P49588_947_NVGCLQEALQLATSFAQLR (UniProt P49588) | -0.0464 |
| ACO2_Q99798_451_DLGGIVLANACGPCIGQWDR (UniProt Q99798) | 0.0722 |
